Record: PubChem BioAssay AID686943 (Drosophila RNAi Screening Center, 2013)
Test: 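Search across the genome for regulators of signalling from receptor tyrosine kinase to ERK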 (primary screen). Cells: Drosophila S2R+ haemocyte-like cells expressing YFP-tagged ERK (Rolled). Knock-down reagent: long dsRNA against Drosophila genes. Conditions: insulin stimulation versus unstimulated cells; dose and duration not given. Measured: 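Per-plate z-scores of phospho-ERK immunostaining normalised to YFP-tagged ERK, measured with and without insulin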. Scale: replicate 1, z-score of dpERK with insulin: higher = more active ERK per ERK-YFP after insulin.
The screen tested about 23,000 reagents; this is an unselected part of those with a known target gene and a result. 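Extra replicates exist only for a retested subset of genes; insulin dose and duration not given; both raised and lowered dpERK matter.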 The numbers tell different reagents against one gene apart. A plus sign joins genes that one reagent is predicted to hit. Not all columns of the deposit are shown. No sequences are given here. Not stated in the record: the amount of reagent, the time to read-out.

CG14314 (GeneID 42179)
- replicate 1, z-score of dpERK with insulin: -0.01

Acam + CG17770 #1
- replicate 1, z-score of dpERK with insulin: 0.16

Acam + CG17770 #2
- replicate 1, z-score of dpERK with insulin: -0.07

CG6153 (GeneID 34675)
- replicate 1, z-score of dpERK with insulin: 0.64

TTLL15 (GeneID 41300)
- replicate 1, z-score of dpERK with insulin: 0.99

CG43277 (GeneID 12798350)
- replicate 1, z-score of dpERK with insulin: 0.57

mesh (GeneID 43688) #1
- replicate 1, z-score of dpERK with insulin: 0.78

mesh (GeneID 43688) #2
- replicate 1, z-score of dpERK with insulin: -0.15

mesh (GeneID 43688) #3
- replicate 1, z-score of dpERK with insulin: -0.17

Mkp3 (GeneID 40081) #1
- replicate 1, z-score of dpERK with insulin: 0.39

Mkp3 (GeneID 40081) #2
- replicate 1, z-score of dpERK with insulin: 0.09

CG31441 (GeneID 326139)
- replicate 1, z-score of dpERK with insulin: -0.08

Capa (GeneID 43541)
- replicate 1, z-score of dpERK with insulin: 0.63

The list goes on; the last 2 above are carried over.
CG31441 (GeneID 326139)
- replicate 1, z-score of dpERK with insulin: -0.08

Capa (GeneID 43541)
- replicate 1, z-score of dpERK with insulin: 0.63

l(2)37Cd (GeneID 35193)
- replicate 1, z-score of dpERK with insulin: -0.25

Nup205 (GeneID 33002)
- replicate 1, z-score of dpERK with insulin: 0.22

ND-SGDH (GeneID 46260)
- replicate 1, z-score of dpERK with insulin: -0.39

Fen1 (GeneID 36887)
- replicate 1, z-score of dpERK with insulin: -0.2

Scox (GeneID 33711)
- replicate 1, z-score of dpERK with insulin: -0.46

Edg78E (GeneID 40354)
- replicate 1, z-score of dpERK with insulin: 0.28

THG (GeneID 34876)
- replicate 1, z-score of dpERK with insulin: 1.15

mRpS14 (GeneID 117414)
- replicate 1, z-score of dpERK with insulin: 0.42
